In paper PMC12014981:

Target: T1, HA-RAB23 (human) (UniProt Q9ULC3)
T1 sequence: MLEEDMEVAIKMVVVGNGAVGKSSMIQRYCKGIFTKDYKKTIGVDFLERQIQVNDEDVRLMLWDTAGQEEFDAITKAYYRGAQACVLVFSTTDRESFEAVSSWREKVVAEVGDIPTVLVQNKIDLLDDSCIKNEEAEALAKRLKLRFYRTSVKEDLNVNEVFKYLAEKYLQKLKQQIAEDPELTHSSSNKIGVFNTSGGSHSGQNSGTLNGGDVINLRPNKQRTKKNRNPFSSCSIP
Assay: co-IP; mouse anti-HA antibody and protein G Mag sepharose on lysates of MG-63 cells transfected with HA-RAB23 pcDNA3.1 (control: IgG on un-transfected cells); cells starved 1 h, osteogenic medium with BMP2 10 min; Pierce IP lysis buffer, 4 °C overnight; western blot

binding: no binding
Substance: clathrin (human (endogenous in MG-63))

No constants are given. Whether binding was seen depends on the method and setting. Binding seen in cells or lysates may run through a third protein. Tags and fused reporters may be left off the sequences shown.
